# Test results taken from paper PMC6316800.
# By UniProt entry, the sequences of proteins in these tests, tags left out.
# UniProt P03496: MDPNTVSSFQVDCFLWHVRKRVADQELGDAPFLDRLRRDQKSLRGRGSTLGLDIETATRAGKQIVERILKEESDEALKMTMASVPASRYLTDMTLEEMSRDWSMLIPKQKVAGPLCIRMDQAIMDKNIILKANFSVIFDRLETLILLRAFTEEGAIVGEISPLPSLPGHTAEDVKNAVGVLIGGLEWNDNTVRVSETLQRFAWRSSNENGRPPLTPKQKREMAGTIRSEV
# B1: Guanine nucleotide-binding protein-like 3 (protein, UniProt Q9BVP2 1-549)
# chain: MKRPKLKKASKRMTCHKRYKIQKKVREHHRKLRKEAKKRGHKKPRKDPGVPNSAPFKEALLREAELRKQRLEELKQQQKLDRQKELEKKRKLETNPDIKPSNVEPMEKEFGLCKTENKAKSGKQNSKKLYCQELKKVIEASDVVLEVLDARDPLGCRCPQVEEAIVQSGQKKLVLILNKSDLVPKENLESWLNYLKKELPTVVFRASTKPKDKGKITKRVKAKKNAAPFRSEVCFGKEGLWKLLGGFQETCSKAIRVGVIGFPNVGKSSIINSLKQEQMCNVGVSMGLTRSMQVVPLDKQITIIDSPSFIVSPLNSSSALALRSPASIEVVKPMEAASAILSQADARQVVLKYTVPGYRNSLEFFTVLAQRRGMHQKGGIPNVEGAAKLLWSEWTGASLAYYCHPPTSWTPPPYFNESIVVDMKSGFNLEELEKNNAQSIRAIKGPHLANSILFQSSGLTNGIIEEKDIHEELPKRKERKQEEREDDKDSDQETVDEEVDENSSGMFAAEETGEALSEETTAGEQSTRSFILDKIIEEDDAYDFSTDYV
# B2: Double-stranded RNA-specific adenosine deaminase (protein, UniProt P55265 1-1226)
# chain: MNPRQGYSLSGYYTHPFQGYEHRQLRYQQPGPGSSPSSFLLKQIEFLKGQLPEAPVIGKQTPSLPPSLPGLRPRFPVLLASSTRGRQVDIRGVPRGVHLRSQGLQRGFQHPSPRGRSLPQRGVDCLSSHFQELSIYQDQEQRILKFLEELGEGKATTAHDLSGKLGTPKKEINRVLYSLAKKGKLQKEAGTPPLWKIAVSTQAWNQHSGVVRPDGHSQGAPNSDPSLEPEDRNSTSVSEDLLEPFIAVSAQAWNQHSGVVRPDSHSQGSPNSDPGLEPEDSNSTSALEDPLEFLDMAEIKEKICDYLFNVSDSSALNLAKNIGLTKARDINAVLIDMERQGDVYRQGTTPPIWHLTDKKRERMQIKRNTNSVPETAPAAIPETKRNAEFLTCNIPTSNASNNMVTTEKVENGQEPVIKLENRQEARPEPARLKPPVHYNGPSKAGYVDFENGQWATDDIPDDLNSIRAAPGEFRAIMEMPSFYSHGLPRCSPYKKLTECQLKNPISGLLEYAQFASQTCEFNMIEQSGPPHEPRFKFQVVINGREFPPAEAGSKKVAKQDAAMKAMTILLEEAKAKDSGKSEESSHYSTEKESEKTAESQTPTPSATSFFSGKSPVTTLLECMHKLGNSCEFRLLSKEGPAHEPKFQYCVAVGAQTFPSVSAPSKKVAKQMAAEEAMKALHGEATNSMASDNQPEGMISESLDNLESMMPNKVRKIGELVRYLNTNPVGGLLEYARSHGFAAEFKLVDQSGPPHEPKFVYQAKVGGRWFPAVCAHSKKQGKQEAADAALRVLIGENEKAERMGFTEVTPVTGASLRRTMLLLSRSPEAQPKTLPLTGSTFHDQIAMLSHRCFNTLTNSFQPSLLGRKILAAIIMKKDSEDMGVVVSLGTGNRCVKGDSLSLKGETVNDCHAEIISRRGFIRFLYSELMKYNSQTAKDSIFEPAKGGEKLQIKKTVSFHLYISTAPCGDGALFDKSCSDRAMESTESRHYPVFENPKQGKLRTKVENGEGTIPVESSDIVPTWDGIRLGERLRTMSCSDKILRWNVLGLQGALLTHFLQPIYLKSVTLGYLFSQGHLTRAICCRVTRDGSAFEDGLRHPFIVNHPKVGRVSIYDSKRQSGKTKETSVNWCLADGYDLEILDGTRGTVDGPRNELSRVSKKNIFLLFKKLCSFRYRRDLLRLSYGEAKKAARDYETAKNYFKKGLKDMGYGNWISKPQEEKNFYLCPV
# B3: Heterogeneous nuclear ribonucleoprotein A (protein, UniProt Q13151 1-305)
# chain: MENSQLCKLFIGGLNVQTSESGLRGHFEAFGTLTDCVVVVNPQTKRSRCFGFVTYSNVEEADAAMAASPHAVDGNTVELKRAVSREDSARPGAHAKVKKLFVGGLKGDVAEGDLIEHFSQFGTVEKAEIIADKQSGKKRGFGFVYFQNHDAADKAAVVKFHPIQGHRVEVKKAVPKEDIYSGGGGGGSRSSRGGRGGRGRGGGRDQNGLSKGGGGGYNSYGGYGGGGGGGYNAYGGGGGGSSYGGSDYGNGFGGFGSYSQHQSSYGPMKSGGGGGGGGSSWGGRSNSGPYRGGYGGGGGYGGSSF
# B4: Heterogeneous nuclear ribonucleoprotein H3 (protein, UniProt P31942 1-346)
# chain: MDWVMKHNGPNDASDGTVRLRGLPFGCSKEEIVQFFQGLEIVPNGITLTMDYQGRSTGEAFVQFASKEIAENALGKHKERIGHRYIEIFRSSRSEIKGFYDPPRRLLGQRPGPYDRPIGGRGGYYGAGRGSMYDRMRRGGDGYDGGYGGFDDYGGYNNYGYGNDGFDDRMRDGRGMGGHGYGGAGDASSGFHGGHFVHMRGLPFRATENDIANFFSPLNPIRVHIDIGADGRATGEADVEFVTHEDAVAAMSKDKNNMQHRYIELFLNSTPGGGSGMGGSGMGGYGRDGMDNQGGYGSVGRMGMGNNYSGGYGTPDGLGGYGRGGGGSGGYYGQGGMSGGGWRGMY
# B5: Heterogeneous nuclear ribonucleoprotein L (protein, UniProt P14866 1-589)
# chain: MSRRLLPRAEKRRRRLEQRQQPDEQRRRSGAMVKMAAAGGGGGGGRYYGGGSEGGRAPKRLKTDNAGDQHGGGGGGGGGAGAAGGGGGGENYDDPHKTPASPVVHIRGLIDGVVEADLVEALQEFGPISYVVVMPKKRQALVEFEDVLGACNAVNYAADNQIYIAGHPAFVNYSTSQKISRPGDSDDSRSVNSVLLFTILNPIYSITTDVLYTICNPCGPVQRIVIFRKNGVQAMVEFDSVQSAQRAKASLNGADIYSGCCTLKIEYAKPTRLNVFKNDQDTWDYTNPNLSGQGDPGSNPNKRQRQPPLLGDHPAEYGGPHGGYHSHYHDEGYGPPPPHYEGRRMGPPVGGHRRGPSRYGPQYGHPPPPPPPPEYGPHADSPVLMVYGLDQSKMNCDRVFNVFCLYGNVEKVKFMKSKPGAAMVEMADGYAVDRAITHLNNNFMFGQKLNVCVSKQPAIMPGQSYGLEDGSCSYKDFSESRNNRFSTPEQAAKNRIQHPSNVLHFFNAPLEVTEENFFEICDELGVKRPSSVKVFSGKSERSSSGLLEWESKSDALETLGFLNHYQMKNPNGPYPYTLKLCFSTAQHAS
# B6: Heterogeneous nuclear ribonucleoprotein M (protein, UniProt P52272 1-730)
# chain: MAAGVEAAAEVAATEIKMEEESGAPGVPSGNGAPGPKGEGERPAQNEKRKEKNIKRGGNRFEPYANPTKRYRAFITNIPFDVKWQSLKDLVKEKVGEVTYVELLMDAEGKSRGCAVVEFKMEESMKKAAEVLNKHSLSGRPLKVKEDPDGEHARRAMQKVMATTGGMGMGPGGPGMITIPPSILNNPNIPNEIIHALQAGRLGSTVFVANLDYKVGWKKLKEVFSMAGVVVRADILEDKDGKSRGIGTVTFEQSIEAVQAISMFNGQLLFDRPMHVKMDERALPKGDFFPPERPQQLPHGLGGIGMGLGPGGQPIDANHLNKGIGMGNIGPAGMGMEGIGFGINKMGGMEGPFGGGMENMGRFGSGMNMGRINEILSNALKRGEIIAKQGGGGGGGSVPGIERMGPGIDRLGGAGMERMGAGLGHGMDRVGSEIERMGLVMDRMGSVERMGSGIERMGPLGLDHMASSIERMGQTMERIGSGVERMGAGMGFGLERMAAPIDRVGQTIERMGSGVERMGPAIERMGLSMERMVPAGMGAGLERMGPVMDRMATGLERMGANNLERMGLERMGANSLERMGLERMGANSLERMGPAMGPALGAGIERMGLAMGGGGGASFDRAIEMERGNFGGSFAGSFGGAGGHAPGVARKACQIFVRNLPFDFTWKMLKDKFNECGHVLYADIKMENGKSKGCGVVKFESPEVAERACRMMNGMKLSGREIDVRIDRNA
# B7: Heterogeneous nuclear ribonucleoprotein R (protein, UniProt O43390 1-633)
# chain: MANQVNGNAVQLKEEEEPMDTSSVTHTEHYKTLIEAGLPQKVAERLDEIFQTGLVAYVDLDERAIDALREFNEEGALSVLQQFKESDLSHVQNKSAFLCGVMKTYRQREKQGSKVQESTKGPDEAKIKALLERTGYTLDVTTGQRKYGGPPPDSVYSGVQPGIGTEVFVGKIPRDLYEDELVPLFEKAGPIWDLRLMMDPLSGQNRGYAFITFCGKEAAQEAVKLCDSYEIRPGKHLGVCISVANNRLFVGSIPKNKTKENILEEFSKVTEGLVDVILYHQPDDKKKNRGFCFLEYEDHKSAAQARRRLMSGKVKVWGNVVTVEWADPVEEPDPEVMAKVKVLFVRNLATTVTEEILEKSFSEFGKLERVKKLKDYAFVHFEDRGAAVKAMDEMNGKEIEGEEIEIVLAKPPDKKRKERQAARQASRSTAYEDYYYHPPPRMPPPIRGRGRGGGRGGYGYPPDYYGYEDYYDDYYGYDYHDYRGGYEDPYYGYDDGYAVRGRGGGRGGRGAPPPPRGRGAPPPRGRAGYSQRGAPLGPPRGSRGGRGGPAQQQRGRGSRGSRGNRGGNVGGKRKADGYNQPDSKRRQTNNQQNWGSQPIAQQPLQQGGDYSGNYGYNNDNQEFYQDTYGQQWK
# Target: Influenza A virus non-structural protein 1 (NS1), strain A/Puerto Rico/8/1934(H1N1) (Influenza A virus A/Puerto Rico/8/1934(H1N1)) (UniProt P03496)
# Assay: affinity purification with mass spectrometry
row,Binder,binding
1,B1,binds
2,B2,binds
3,B3,binds
4,B4,binds
5,B5,binds
6,B6,binds
7,B7,binds

# Results are given in words; binding and its absence hold for the method and conditions named. Binding seen in cells or lysates may run through a third protein. These calls come from enrichment with a bait or labelling near it, and not all partners need be listed.
